Test results as given in publication PMC7078486.

Amino acid sequences for entries named in this document (tags omitted). A change or cut given only in a name is not applied to a line headed by its entry.
UniProt Q8IEJ0: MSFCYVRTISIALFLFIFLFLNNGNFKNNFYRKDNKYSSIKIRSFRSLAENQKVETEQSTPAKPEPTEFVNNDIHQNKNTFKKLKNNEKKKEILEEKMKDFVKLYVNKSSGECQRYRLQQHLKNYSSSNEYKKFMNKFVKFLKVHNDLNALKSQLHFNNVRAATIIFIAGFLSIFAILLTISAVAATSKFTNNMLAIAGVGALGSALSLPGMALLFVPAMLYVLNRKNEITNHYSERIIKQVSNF
UniProt Q6V0W7: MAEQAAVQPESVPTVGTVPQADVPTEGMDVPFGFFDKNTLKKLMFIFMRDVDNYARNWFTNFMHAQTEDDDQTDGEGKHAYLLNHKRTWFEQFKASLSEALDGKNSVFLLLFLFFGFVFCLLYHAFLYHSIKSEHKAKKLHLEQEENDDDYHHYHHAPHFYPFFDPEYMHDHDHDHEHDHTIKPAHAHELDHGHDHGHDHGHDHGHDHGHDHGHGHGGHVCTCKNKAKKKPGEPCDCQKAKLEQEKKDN
UniProt Q8I2D9: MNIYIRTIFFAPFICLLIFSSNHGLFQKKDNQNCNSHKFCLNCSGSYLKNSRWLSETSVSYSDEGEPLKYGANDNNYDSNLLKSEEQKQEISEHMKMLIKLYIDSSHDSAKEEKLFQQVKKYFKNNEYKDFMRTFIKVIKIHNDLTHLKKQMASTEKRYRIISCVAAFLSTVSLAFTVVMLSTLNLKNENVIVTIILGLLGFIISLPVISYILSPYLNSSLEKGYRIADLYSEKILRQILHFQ

T1: PF3D7_1353100-GFP (Plasmodium falciparum 3D7) (UniProt Q8IDG9)
T1 sequence: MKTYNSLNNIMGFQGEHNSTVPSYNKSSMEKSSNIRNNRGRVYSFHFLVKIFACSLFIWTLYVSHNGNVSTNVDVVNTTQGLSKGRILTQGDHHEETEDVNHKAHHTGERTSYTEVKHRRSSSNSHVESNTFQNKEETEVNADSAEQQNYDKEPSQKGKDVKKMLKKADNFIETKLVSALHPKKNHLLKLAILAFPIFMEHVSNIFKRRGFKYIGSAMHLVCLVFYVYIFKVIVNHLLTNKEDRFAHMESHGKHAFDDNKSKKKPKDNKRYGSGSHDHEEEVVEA

B1: PF3D7_0702500 (protein, UniProt Q8IC42 1-253)
chain: MAYPLLEDDLRSIRVAFGTCPGNSTMQFGERFWQGFFFGVIIFFVLSKYIRSYKKRKGMRILKSSSVTKGRLYRGTVFDEDDNVDGHHKKTKAHGLFEEIEKRNGFDLNDDTTNSNNLGEGTHSAVHNLDGQKESQLYKNNSDGSTENHLSGSNSDGRNSSQHSVGSHSVSSQEHKKEHSTHDLPAGRNYSLGNLSTGTTSQGSTSSRHYSLGGQPSSSGRSFSGSKYNTSNLASSSTTESSVSGLNTNEAHV
B2: PF3D7_1002000 (protein, UniProt Q8IK16 1-469)
chain: MFICIYFFYNNIVIESTPINVIIKKKKKMTNLRYGNTFNFICNKYDEVIQHGCINLDNMHKNNKKGNKKKYINIFPIMKVLVICLLLSLVNKSNDNTYNEDIFQKDKENCGGLRYKRLLAEPIFGFDVMYDLFKDNFLEQIGYNDAQKNELKVSMKSFFQSSNSQEYTYSRREDNIHSISKSNVTNVKSVKFEEPQDEKNLITIEEIKADNNDSKEKKNEITNINVDEKKDLESVISSEEEKTPTSNNIRKKRKTKRSHKNKDSNTSYDNIELNKILKDDNIEVNKTLKEDNIEVNNTLEEDNIEVNNTLKEDNIEVEKLIDENRELIKKESIYKNKLKEDNIEVEKLIDENRELIKKESIYKNKLKEDNIEVEDLIDENRKLIKKESIYKNKLEEEPVEKGIKRKNYLFLILEKAKEIPPGVIVGLFSIFYVALGENRSSLILLIVIFILTVHTYLEVKRICRFLNID

What was measured:
Assay in all cases: affinity purification with mass spectrometry; GFP-tagged bait captured on GFP-Trap agarose beads from infected RBCs solubilised in IP buffer (1% Triton X-100, 150 mM NaCl, 50 mM Tris, 8 mM EDTA), precleared with protein A agarose, 16 h at 4°C, 5 washes; eluate digested with trypsin, LC-MS/MS (Q Exactive)
[1] = target: GFP-tagged gametocyte exported protein 7 (GEXP07)/CX3CL1-binding protein 2 (CBP2) (Plasmodium falciparum 3D7) (UniProt Q8IEJ0)
[2] = target: GFP-tagged membrane-associated histidine-rich protein 1 (MAHRP1) (Plasmodium falciparum 3D7) (UniProt Q6V0W7)
[3] = target: GFP-tagged GEXP10/CX3CL1-binding protein 1 (CBP1) (Plasmodium falciparum 3D7) (UniProt Q8I2D9)
[4] = target: T1, PF3D7_1353100-GFP (Plasmodium falciparum 3D7)
[5] = target: GFP-tagged PfEMP1 trafficking protein 6 (PTP6) (Plasmodium falciparum 3D7)

Molecule	binding [1]	binding [2]	binding [3]	binding [5]	further results
GEXP10/CX3CL1-binding protein 1 (CBP1) (from UniProt Q8I2D9)	binds	binds			
gametocyte exported protein 7 (GEXP07)/CX3CL1-binding protein 2 (CBP2) (from UniProt Q8IEJ0)		binds	binds		
membrane-associated histidine-rich protein 1 (MAHRP1) (from UniProt Q6V0W7 1-249)	binds		binds		
membrane-associated histidine-rich protein 2 (MAHRP2)					binding [4]: binds
B1				binds	
B2				binds	

Results are given in words; binding and its absence hold for the method and conditions named. Binding seen in cells or lysates may run through a third protein. These calls come from enrichment with a bait or labelling near it, and not all partners need be listed. For part of these data: Where a sequence is shown, tags or fusion partners need not be part of it.
